Measurements reported in patent US9345781B2 (priority 2009, dated 2016).

assay: peptide synthesis; conditions: conjugation step

Going from “Fmoc-SP94-Mal-tert-butyl(2-(3-(2,5-dioxo-2,5-dihydro-1H-pyrrol-1-yl)propanamido)(polyethylene glycol)ethyl)carbamate” to “Fmoc-SP94-Mal-(2-(3-(2,5-dioxo-2,5-dihydro-1H-pyrrol-1-yl)propanamido)-2-amino(Fl6-G5-cis-aconityl-amino PEG-)-(polyethylene glycol)ethyl)carbamate”, the conjugation yield rises from 80% yield to 85% yield.

same assay, conditions: late stage modification step

Going from “Fmoc-SP94-Mal-(2-(3-(2,5-dioxo-2,5-dihydro-1H-pyrrol-1-yl)propanamido)-2-amino(cis-aconityl-amino PEG-)-(polyethylene glycol)ethyl)carbamate” to “H2N-SP94-Mal-(2-(3-(2,5-dioxo-2,5-dihydro-1H-pyrrol-1-yl)propanamido)-2-amino(FT-G5-NHAc-cis-aconityl-amino PEG-)-(polyethylene glycol)ethyl)carbamate”, the step yield rises from 65% yield to 80% yield.

Compared with “Fmoc-SP94-Mal-(2-(3-(2,5-dioxo-2,5-dihydro-1H-pyrrol-1-yl)propanamido)-2-amino(FT-G5-NHAc-cis-aconityl-amino PEG-)-(polyethylene glycol)ethyl)carbamate”, “Fmoc-SP94-Mal-(2-(3-(2,5-dioxo-2,5-dihydro-1H-pyrrol-1-yl)propanamido)(polyethylene glycol)ethyl)carbamate” is higher in step yield: 80% yield for the first, 85% yield for the second.
